The values below come from patent publication US20130012693.

The chains behind the UniProt entries cited, without tags or fusion partners. Residues count along the entry.
UniProt P01138, 122-241: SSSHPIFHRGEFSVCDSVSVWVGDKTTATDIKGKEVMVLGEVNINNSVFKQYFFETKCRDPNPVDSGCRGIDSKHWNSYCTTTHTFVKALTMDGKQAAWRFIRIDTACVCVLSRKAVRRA

No signal at the amounts used counts as a negative.

In this data set the target is beta-NGF (Homo sapiens) (UniProt P01138). Description: filter binding. To be noted: purified recombinant protein, label: radiolabel, single-stranded DNA.
The mark [1] stands for this setting: BndU at Z' (n) positions [n positions 6,13,14,19,20,21,27,28,30 = modified dU], retained binding, variant of 2426-66.
Setting [2] is: BndU at Z' (n) positions [n positions 4,11,12,17,18,19,25,26,28 = modified dU], retained binding, variant of 2426-66.
Where [3] appears, read: BndU at Z' (n) positions [n positions 12,19,20,25,26,27,33,34,36 = modified dU], retained binding, variant of 2426-66.
Where [4] appears, read: BndU at Z' (n) positions [n positions 5,12,13,18,19,20,26,27,29 = modified dU], retained binding, variant of 2426-66.
The mark [5] stands for this setting: BndU at Z' (n) positions [n positions 13,20,21,26,27,28,34,35,37 = modified dU], retained binding, variant of 2426-66.
[6] abbreviates: BndU at Z' (n) positions [n positions 10,17,18,23,24,25,31,32,34 = modified dU], retained binding, variant of 2426-66.
Where [7] appears, read: BndU at Z' (n) positions [n positions 7,14,15,20,21,22,28,29,31 = modified dU], retained binding, variant of 2426-66.
The mark [8] stands for this setting: BndU at Z' (n) positions [n positions 14,21,22,27,28,29,35,36,38 = modified dU], retained binding, variant of 2426-66.
The mark [9] stands for this setting: BndU at Z' (n) positions [n positions 11,18,19,24,25,26,32,33,35 = modified dU], retained binding, variant of 2426-66.
[10] abbreviates: BndU at Z' (n) positions [n positions 8,15,16,21,22,23,29,30,32 = modified dU], retained binding, variant of 2426-66.
[11] abbreviates: BndU at Z' (n) positions [n positions 9,16,17,22,23,24,30,31,33 = modified dU], retained binding, variant of 2426-66.

For the sequence “ACACATGAGGACTTGGGGTTTAGCCGTTGTG [2426-66-47]”, the binding result under setting [1] is reported as “binds”.

“ACACATGAGGACTTGGGGTTTAGCCGTTGTGGCACAGAGAAGAAACAAGA [2426-66-26]”: under setting [1], the binding result was “binds”.

As for “ACATGAGGACTTGGGGTTTAGCCGTTGTG [2426-66-49]”, the binding result under setting [2] is given as “binds”.

“ACATGAGGACTTGGGGTTTAGCCGTTGTGGCACAGAGAAGAAACAAGACC [2426-66-39]”: the binding result under setting [2] was “binds”.

Take “ACCGTCTGCCTGCAGCGGGACACATGAGGACTTGGGGTTTAGCCGTTGTG [2426-66-7]”: the binding result (BndU at Z' (n) positions [n positions 25,32,33,38,39,40,46,47,49 = modified dU], retained binding, variant of 2426-66) was “binds”.

As to ACTTGGGGTTTAGCCGTTGTG [2426-66-59], the binding result (BndU at Z' (n) positions [n positions 3,4,9,10,11,17,18,20 = modified dU], did not retain binding, variant of 2426-66) is “no binding”.

Take “AGCGGGACACATGAGGACTTGGGGTTTAGCCGTTGTG [2426-66-42]”: the binding result under setting [3] is listed as “binds”.

As to “AGCGGGACACATGAGGACTTGGGGTTTAGCCGTTGTGGCACAGAGAAGAA [2426-66-20]”, under setting [3], the binding result is recorded as “binds”.

In the case of AGGACTTGGGGTTTAGCCGTTGTG [2426-66-56], the binding result (BndU at Z' (n) positions [n positions 6,7,12,13,14,20,21,23 = modified dU], did not retain binding, variant of 2426-66) was “no binding”.

On to “ATGAGGACTTGGGGTTTAGCCGTTGTG [2426-66-76]”, for which the binding result (BndU at Z' (n) positions, dT at 10 and 17 [n positions 2,9,15,16,23,24,26 = modified dU], no loss of affinity vs unsubstituted control, variant of 2426-66-53) was “binds”.

“CACATGAGGACTTGGGGTTTAGCCGTTGTG [2426-66-48]”: under setting [4], the binding result was “binds”.

In the case of “CACATGAGGACTTGGGGTTTAGCCGTTGTGGCACAGAGAAGAAACAAGAC [2426-66-38]”, the binding result under setting [4] is “binds”.

With “CAGCGGGACACATGAGGACTTGGGGTTTAGCCGTTGTG [2426-66-41]”, the binding result under setting [5] was “binds”.

On to “CAGCGGGACACATGAGGACTTGGGGTTTAGCCGTTGTGGCACAGAGAAGA [2426-66-19]”, for which, under setting [5], the binding result is “binds”.

Regarding “CCGTCTGCCTGCAGCGGGACACATGAGGACTTGGGGTTTAGCCGTTGTGG [2426-66-8]”, the binding result (BndU at Z' (n) positions [n positions 24,31,32,37,38,39,45,46,48 = modified dU], retained binding, variant of 2426-66) is listed as “binds”.

In the case of “CCTGCAGCGGGACACATGAGGACTTGGGGTTTAGCCGTTGTGGCACAGAG [2426-66-15]”, under “BndU at Z' (n) positions [n positions 17,24,25,30,31,32,38,39,41 = modified dU], retained binding, variant of 2426-66”, the binding result is recorded as “binds”.

As for “CGGGACACATGAGGACTTGGGGTTTAGCCGTTGTG [2426-66-43]”, the binding result under setting [6] is “binds”.

Turning to “CGGGACACATGAGGACTTGGGGTTTAGCCGTTGTGGCACAGAGAAGAAAC [2426-66-22]”, the binding result under setting [6] is “binds”.

Turning to “CTGCAGCGGGACACATGAGGACTTGGGGTTTAGCCGTTGTGGCACAGAGA [2426-66-16]”, the binding result (BndU at Z' (n) positions [n positions 16,23,24,29,30,31,37,38,40 = modified dU], retained binding, variant of 2426-66) is “binds”.

Regarding “CTGCCTGCAGCGGGACACATGAGGACTTGGGGTTTAGCCGTTGTGGCACA [2426-66-12]”, the binding result (BndU at Z' (n) positions [n positions 20,27,28,33,34,35,41,42,44 = modified dU], retained binding, variant of 2426-66) is on record as “binds”.

Regarding “GACACATGAGGACTTGGGGTTTAGCCGTTGTG [2426-66-46]”, the binding result under setting [7] is reported as “binds”.

Turning to “GACACATGAGGACTTGGGGTTTAGCCGTTGTGGCACAGAGAAGAAACAAG [2426-66-25]”, the binding result under setting [7] is recorded as “binds”.

Take “GACCGTCTGCCTGCAGCGGGACACATGAGGACTTGGGGTTTAGCCGTTGT [2426-66-6]”: where the note is “BndU at Z' (n) positions [n positions 26,33,34,39,40,41,47,48 = modified dU], did not retain binding, variant of 2426-66”, the binding result is recorded as “no binding”.

Consider GACTTGGGGTTTAGCCGTTGTG [2426-66-58], for which the binding result (BndU at Z' (n) positions [n positions 4,5,10,11,12,18,19,21 = modified dU], did not retain binding, variant of 2426-66) is “no binding”.

Consider “GAGTGACCGTCTGCCTGCAGCGGGACACATGAGGACTTGGGGTTTAGCCG [2426-66-2]”, for which, under “BndU at Z' (n) positions [n positions 30,37,38,43,44,45 = modified dU], did not retain binding, variant of 2426-66”, the binding result is recorded as “no binding”.

As to “GCAGCGGGACACATGAGGACTTGGGGTTTAGCCGTTGTG [2426-66-40]”, the binding result under setting [8] is given as “binds”.

Regarding “GCAGCGGGACACATGAGGACTTGGGGTTTAGCCGTTGTGGCACAGAGAAG [2426-66-18]”, the binding result under setting [8] was “binds”.

Regarding “GCCTGCAGCGGGACACATGAGGACTTGGGGTTTAGCCGTTGTGGCACAGA [2426-66-14]”, the binding result (BndU at Z' (n) positions [n positions 18,25,26,31,32,33,39,40,42 = modified dU], retained binding, variant of 2426-66) is “binds”.

Consider “GCGGGACACATGAGGACTTGGGGTTTAGCCGTTGTG [2426-66-52]”, for which the binding result under setting [9] was “binds”.

In the case of “GCGGGACACATGAGGACTTGGGGTTTAGCCGTTGTGGCACAGAGAAGAAA [2426-66-21]”, under setting [9], the binding result was “binds”.

Turning to “GGACACATGAGGACTTGGGGTTTAGCCGTTGTG [2426-66-45]”, the binding result under setting [10] is listed as “binds”.

Take “GGACACATGAGGACTTGGGGTTTAGCCGTTGTGGCACAGAGAAGAAACAA [2426-66-24]”: the binding result under setting [10] is on record as “binds”.

For the sequence GGACTTGGGGTTTAGCCGTTGTG [2426-66-57], under “BndU at Z' (n) positions [n positions 5,6,11,12,13,19,20,22 = modified dU], did not retain binding, variant of 2426-66”, the binding result is “no binding”.

As for “GGGACACATGAGGACTTGGGGTTTAGCCGTTGTG [2426-66-44]”, the binding result under setting [11] is given as “binds”.

As to “GGGACACATGAGGACTTGGGGTTTAGCCGTTGTGGCACAGAGAAGAAACA [2426-66-23]”, the binding result under setting [11] was “binds”.

For “GTCTGCCTGCAGCGGGACACATGAGGACTTGGGGTTTAGCCGTTGTGGCA [2426-66-10]”, under “BndU at Z' (n) positions [n positions 22,29,30,35,36,37,43,44,46 = modified dU], retained binding, variant of 2426-66”, the binding result is listed as “binds”.

Consider “GTGACCGTCTGCCTGCAGCGGGACACATGAGGACTTGGGGTTTAGCCGTT [2426-66-4]”, for which, where the note is “BndU at Z' (n) positions [n positions 28,35,36,41,42,43,49,50 = modified dU], did not retain binding, variant of 2426-66”, the binding result was “no binding”.

In the case of “TCTGCCTGCAGCGGGACACATGAGGACTTGGGGTTTAGCCGTTGTGGCAC [2426-66-11]”, the binding result (BndU at Z' (n) positions [n positions 21,28,29,34,35,36,42,43,45 = modified dU], retained binding, variant of 2426-66) is given as “binds”.

In the case of “TGACCGTCTGCCTGCAGCGGGACACATGAGGACTTGGGGTTTAGCCGTTG [2426-66-5]”, the binding result (BndU at Z' (n) positions [n positions 27,34,35,40,41,42,48,49 = modified dU], did not retain binding, variant of 2426-66) is reported as “no binding”.

TGAGGACTTGGGGTTTAGCCGTTGTG [2426-66-68]: under “BndU at Z' (n) positions, dT at 9 [n positions 1,8,14,15,16,22,23,25 = modified dU], no loss of affinity vs 2426-66-54, variant of 2426-66-54”, the binding result is given as “binds”.

As to TGAGGACTTGGGGTTTAGCCGTTGTG [2426-66-70], the binding result (BndU at Z' (n) positions, dT at 15 [n positions 1,8,9,14,16,22,23,25 = modified dU], complete loss of affinity, variant of 2426-66-54) is listed as “no binding”.

Take TGAGGACTTGGGGTTTAGCCGTTGTG [2426-66-71]: the binding result (BndU at Z' (n) positions, dT at 16 [n positions 1,8,9,14,15,22,23,25 = modified dU], no loss of affinity vs 2426-66-54, variant of 2426-66-54) is given as “binds”.
